Results: the supplement of paper PMC12819154, “High-throughput peptide-centric local stability assay extends protein–ligand identification to membrane proteins, tissues and bacteria” (Nature Structural & Molecular Biology, 2025)
Some of the results follow. Most values lie at the level of the controls, where differences are scatter.

Protein sequences, listed by entry. Tags and fused reporters are not part of them. Lines headed by an entry give the natural chain unless they say otherwise; changes in a name come on top.
UniProt P15927: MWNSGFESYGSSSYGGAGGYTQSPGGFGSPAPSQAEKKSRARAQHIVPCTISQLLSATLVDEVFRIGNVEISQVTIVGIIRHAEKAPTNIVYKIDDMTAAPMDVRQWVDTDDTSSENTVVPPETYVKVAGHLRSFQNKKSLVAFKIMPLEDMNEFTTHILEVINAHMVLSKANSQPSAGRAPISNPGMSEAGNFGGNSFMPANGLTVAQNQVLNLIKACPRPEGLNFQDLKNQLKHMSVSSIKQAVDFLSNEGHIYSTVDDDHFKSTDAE
UniProt P19484: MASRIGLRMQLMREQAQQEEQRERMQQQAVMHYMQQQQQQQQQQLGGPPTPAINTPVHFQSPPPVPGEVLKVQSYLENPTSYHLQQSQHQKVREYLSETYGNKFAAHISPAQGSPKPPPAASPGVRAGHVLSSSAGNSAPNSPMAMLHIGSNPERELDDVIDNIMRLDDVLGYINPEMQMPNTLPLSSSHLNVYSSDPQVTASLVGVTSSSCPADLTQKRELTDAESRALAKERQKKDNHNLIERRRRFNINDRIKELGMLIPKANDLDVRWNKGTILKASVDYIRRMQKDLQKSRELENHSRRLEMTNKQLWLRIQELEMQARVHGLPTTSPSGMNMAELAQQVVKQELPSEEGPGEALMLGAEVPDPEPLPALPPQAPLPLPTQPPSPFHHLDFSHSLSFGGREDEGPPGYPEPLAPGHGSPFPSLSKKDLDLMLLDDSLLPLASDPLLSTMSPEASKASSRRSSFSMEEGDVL
UniProt P14859: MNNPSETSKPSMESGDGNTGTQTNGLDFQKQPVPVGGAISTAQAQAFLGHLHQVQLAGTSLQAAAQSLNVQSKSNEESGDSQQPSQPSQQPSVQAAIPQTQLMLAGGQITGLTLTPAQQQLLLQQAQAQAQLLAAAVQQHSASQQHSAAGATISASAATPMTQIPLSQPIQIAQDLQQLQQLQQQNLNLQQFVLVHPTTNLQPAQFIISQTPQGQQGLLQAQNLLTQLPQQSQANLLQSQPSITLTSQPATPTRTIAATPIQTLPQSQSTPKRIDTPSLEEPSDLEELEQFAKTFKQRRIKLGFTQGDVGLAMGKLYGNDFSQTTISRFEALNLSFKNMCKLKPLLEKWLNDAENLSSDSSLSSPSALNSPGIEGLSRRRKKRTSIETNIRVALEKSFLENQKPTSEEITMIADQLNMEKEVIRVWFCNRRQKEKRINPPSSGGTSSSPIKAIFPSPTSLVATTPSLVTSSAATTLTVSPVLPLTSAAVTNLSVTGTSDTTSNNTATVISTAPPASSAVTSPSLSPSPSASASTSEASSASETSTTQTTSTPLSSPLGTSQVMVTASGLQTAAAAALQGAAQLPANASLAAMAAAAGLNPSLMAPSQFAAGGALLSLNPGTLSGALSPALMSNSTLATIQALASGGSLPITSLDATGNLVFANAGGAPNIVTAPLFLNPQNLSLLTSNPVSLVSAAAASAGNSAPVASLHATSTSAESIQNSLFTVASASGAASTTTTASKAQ
UniProt P14317: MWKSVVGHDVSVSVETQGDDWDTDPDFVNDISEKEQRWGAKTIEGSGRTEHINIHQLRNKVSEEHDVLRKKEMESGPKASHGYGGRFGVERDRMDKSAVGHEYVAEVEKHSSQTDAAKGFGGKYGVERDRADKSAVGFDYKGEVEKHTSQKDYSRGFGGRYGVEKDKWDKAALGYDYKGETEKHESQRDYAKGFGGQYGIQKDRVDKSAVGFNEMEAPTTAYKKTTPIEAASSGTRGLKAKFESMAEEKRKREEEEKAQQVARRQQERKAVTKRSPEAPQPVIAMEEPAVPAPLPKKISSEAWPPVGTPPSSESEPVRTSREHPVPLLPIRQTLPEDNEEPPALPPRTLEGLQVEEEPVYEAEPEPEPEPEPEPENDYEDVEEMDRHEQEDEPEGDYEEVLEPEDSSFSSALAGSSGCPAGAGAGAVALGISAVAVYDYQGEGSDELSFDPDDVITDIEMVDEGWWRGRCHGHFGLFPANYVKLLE
UniProt P13807: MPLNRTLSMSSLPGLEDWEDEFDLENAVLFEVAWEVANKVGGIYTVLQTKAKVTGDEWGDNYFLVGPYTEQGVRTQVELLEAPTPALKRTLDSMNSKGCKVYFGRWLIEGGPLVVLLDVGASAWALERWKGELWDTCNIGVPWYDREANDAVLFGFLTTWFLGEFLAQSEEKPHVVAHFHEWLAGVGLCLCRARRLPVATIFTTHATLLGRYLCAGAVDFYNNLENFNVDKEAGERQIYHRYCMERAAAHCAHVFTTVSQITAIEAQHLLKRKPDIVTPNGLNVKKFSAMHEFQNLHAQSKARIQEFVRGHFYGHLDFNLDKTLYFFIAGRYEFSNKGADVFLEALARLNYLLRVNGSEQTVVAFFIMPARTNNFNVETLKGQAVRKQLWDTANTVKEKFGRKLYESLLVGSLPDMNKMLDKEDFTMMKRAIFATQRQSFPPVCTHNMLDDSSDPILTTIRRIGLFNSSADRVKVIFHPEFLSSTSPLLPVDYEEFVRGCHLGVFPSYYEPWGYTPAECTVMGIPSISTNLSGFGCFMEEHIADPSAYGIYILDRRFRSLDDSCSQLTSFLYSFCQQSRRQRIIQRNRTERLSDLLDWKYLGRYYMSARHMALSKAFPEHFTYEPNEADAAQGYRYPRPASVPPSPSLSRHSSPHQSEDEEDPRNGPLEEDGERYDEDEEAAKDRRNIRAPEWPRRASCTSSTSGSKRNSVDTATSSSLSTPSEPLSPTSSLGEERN
UniProt P18054: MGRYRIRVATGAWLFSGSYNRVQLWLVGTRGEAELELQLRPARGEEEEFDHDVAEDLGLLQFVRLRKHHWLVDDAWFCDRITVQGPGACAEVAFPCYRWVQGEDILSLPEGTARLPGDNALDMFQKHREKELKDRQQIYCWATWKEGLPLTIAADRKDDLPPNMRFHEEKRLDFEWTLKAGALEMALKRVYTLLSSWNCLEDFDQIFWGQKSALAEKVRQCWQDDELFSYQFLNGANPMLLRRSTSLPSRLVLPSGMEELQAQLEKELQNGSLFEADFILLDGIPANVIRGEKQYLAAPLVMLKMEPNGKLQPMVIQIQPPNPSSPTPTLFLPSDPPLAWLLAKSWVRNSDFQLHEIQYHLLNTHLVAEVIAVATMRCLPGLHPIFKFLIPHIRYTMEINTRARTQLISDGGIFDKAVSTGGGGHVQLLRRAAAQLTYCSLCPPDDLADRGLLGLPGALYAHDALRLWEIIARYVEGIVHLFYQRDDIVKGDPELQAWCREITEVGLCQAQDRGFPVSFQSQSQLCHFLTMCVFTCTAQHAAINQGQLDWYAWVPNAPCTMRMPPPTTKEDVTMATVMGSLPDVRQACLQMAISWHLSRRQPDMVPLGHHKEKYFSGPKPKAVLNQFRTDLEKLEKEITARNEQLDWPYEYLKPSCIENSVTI
UniProt P17844: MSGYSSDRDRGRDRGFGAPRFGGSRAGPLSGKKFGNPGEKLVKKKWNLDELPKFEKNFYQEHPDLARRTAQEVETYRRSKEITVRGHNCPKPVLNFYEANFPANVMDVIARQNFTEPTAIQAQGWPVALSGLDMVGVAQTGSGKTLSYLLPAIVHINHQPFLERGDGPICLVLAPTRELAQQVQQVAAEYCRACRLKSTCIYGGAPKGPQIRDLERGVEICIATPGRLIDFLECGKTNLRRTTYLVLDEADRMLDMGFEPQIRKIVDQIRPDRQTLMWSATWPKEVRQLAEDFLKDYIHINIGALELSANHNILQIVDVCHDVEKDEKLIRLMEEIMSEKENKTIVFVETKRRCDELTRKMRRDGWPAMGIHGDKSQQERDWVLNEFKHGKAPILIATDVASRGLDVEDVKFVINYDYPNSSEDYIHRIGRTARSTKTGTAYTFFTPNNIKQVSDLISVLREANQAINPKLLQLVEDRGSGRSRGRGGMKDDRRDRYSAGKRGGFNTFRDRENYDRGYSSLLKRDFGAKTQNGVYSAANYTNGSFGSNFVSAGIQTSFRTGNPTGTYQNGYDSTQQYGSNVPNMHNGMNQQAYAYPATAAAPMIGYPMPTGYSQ
UniProt P23511, whole entry: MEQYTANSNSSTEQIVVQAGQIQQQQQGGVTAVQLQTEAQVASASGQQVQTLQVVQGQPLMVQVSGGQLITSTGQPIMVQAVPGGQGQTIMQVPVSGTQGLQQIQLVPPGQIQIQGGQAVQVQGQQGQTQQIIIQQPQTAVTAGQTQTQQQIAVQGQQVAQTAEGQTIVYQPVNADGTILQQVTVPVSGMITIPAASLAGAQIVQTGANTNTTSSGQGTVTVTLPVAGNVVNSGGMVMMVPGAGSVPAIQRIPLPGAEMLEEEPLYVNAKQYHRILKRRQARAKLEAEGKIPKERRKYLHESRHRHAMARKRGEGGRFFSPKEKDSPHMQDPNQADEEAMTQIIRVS
UniProt P23258, whole entry: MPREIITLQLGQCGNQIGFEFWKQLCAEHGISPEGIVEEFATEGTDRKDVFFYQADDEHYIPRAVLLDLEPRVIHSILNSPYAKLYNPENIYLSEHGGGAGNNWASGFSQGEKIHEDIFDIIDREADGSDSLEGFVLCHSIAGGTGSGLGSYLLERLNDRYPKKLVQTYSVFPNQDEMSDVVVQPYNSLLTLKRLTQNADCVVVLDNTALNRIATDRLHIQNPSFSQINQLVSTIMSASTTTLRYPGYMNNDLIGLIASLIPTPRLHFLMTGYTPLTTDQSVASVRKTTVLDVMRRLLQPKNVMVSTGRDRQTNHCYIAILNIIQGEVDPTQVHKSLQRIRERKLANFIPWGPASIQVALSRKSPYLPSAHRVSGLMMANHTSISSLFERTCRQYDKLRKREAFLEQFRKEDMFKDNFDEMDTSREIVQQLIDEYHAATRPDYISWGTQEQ
UniProt P23677, whole entry: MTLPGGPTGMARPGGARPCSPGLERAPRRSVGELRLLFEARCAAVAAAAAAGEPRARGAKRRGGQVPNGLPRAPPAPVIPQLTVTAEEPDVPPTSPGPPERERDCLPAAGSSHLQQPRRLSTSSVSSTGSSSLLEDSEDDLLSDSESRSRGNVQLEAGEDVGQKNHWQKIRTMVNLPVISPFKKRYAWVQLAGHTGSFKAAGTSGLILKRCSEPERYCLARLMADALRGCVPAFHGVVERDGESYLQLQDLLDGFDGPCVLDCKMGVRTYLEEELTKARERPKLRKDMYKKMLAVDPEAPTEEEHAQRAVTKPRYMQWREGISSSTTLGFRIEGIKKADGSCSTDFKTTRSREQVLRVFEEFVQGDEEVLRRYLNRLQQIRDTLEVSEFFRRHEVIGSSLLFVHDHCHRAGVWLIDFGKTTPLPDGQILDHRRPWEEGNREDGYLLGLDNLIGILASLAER

Compound: CN[C@@H]1C[C@H]2O[C@@](C)([C@@H]1OC)n1c3ccccc3c3c4c(c5c6ccccc6n2c5c31)C(=O)NC4 [staurosporine]
Assay: log2 fold change of tryptic peptide abundance, ligand vs vehicle (limited proteolysis) (log2 ratio); higher = more trypsin-susceptible (destabilized)
Conditions: ligand concentration: 20 uM; sample: K562 cleared lysate; digestion: 4 min, 22 C (HT-PELSA RT4min, Orbitrap Astral)

Row | Target | log2 fold change
1 | RPA2 (peptide sequence: ACPRPEGLNFQDLK, peptide start residue: 218) (UniProt P15927) | 0.07
2 | TFEB (peptide sequence: FAAHISPAQGSPKPPPAASPGVR, peptide start residue: 104) (UniProt P19484) | -0.187
3 | POU2F1 (peptide sequence: TIAATPIQTLPQSQSTPK, peptide start residue: 255) (UniProt P14859) | 0.0352
4 | NCK1 (peptide sequence: TGFVPSNYVERK, peptide start residue: 48) (UniProt P16333) | -0.158
5 | HCLS1 (peptide sequence: VSEEHDVLR, peptide start residue: 61) (UniProt P14317) | 0.325
6 | GYS1 (peptide sequence: RASCTSSTSGSKR, peptide start residue: 696) (UniProt P13807) | -1
7 | UniProt P18054 (peptide sequence: TDLEKLEK, peptide start residue: 629) | -0.0602
8 | NEB (peptide sequence: YHEDFEK, peptide start residue: 785) (UniProt P20929) | 0.0685
9 | DDX5 (peptide sequence: TIVFVETK, peptide start residue: 344) (UniProt P17844) | -0.133
10 | NFYA (peptide sequence: AKLEAEGKIPK, peptide start residue: 283) (UniProt P23511) | -0.0631
11 | TUBG1 (peptide sequence: LANFIPWGPASIQVALSR, peptide start residue: 345) (UniProt P23258) | -0.398
12 | ITPKA (peptide sequence: TLPGGPTGMAR, peptide start residue: 2) (UniProt P23677) | 0.204
